Counter-ions that a name gives are not always drawn. Some of the results follow. This data set is noisy: repeats of one test often differ as much as different tests do.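 Human U-2 OS cells stably expressing a GFP sensor with a nuclear import signal and classical export signal were transfected to produce PR50, a 50-repeat proline–arginine dipeptide from ALS/FTD gene C9ORF72. Nuclear-minus-cytoplasm GFP was scaled from DMSO (low) to PR-only (high), scored against plate test wells; strongly negative scores marked PR-reversing hits.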

The subject of this test is U-2 OS NCT-C biosensor cells expressing PR50. The test is described as follows: Z-score of normalised NCT-C biosensor translocation index in PR50-expressing cells; higher = more nuclear biosensor (more disrupted nuclear export). The conditions noted are these: 3 µM; 24 h.
As for `C[N+]1(C)[C@@H]2CC[C@H]1C[C@@H](OC(=O)C(O)c1ccccc1)C2` (some centres not stated) [Homatropine Methylbromide], the Z-score is inactive: 0.381.

For `CC(C)(C(=O)O)c1ccc(C(O)CCCN2CCC(C(O)(c3ccccc3)c3ccccc3)CC2)cc1` (configuration not stated) [Fexofenadine·HCl], the Z-score was inactive: 1.03.

For the molecule `CC(C)(C(=O)O)c1ccc(C(O)CCCN2CCC(C(O)(c3ccccc3)c3ccccc3)CC2)cc1` (configuration not stated) [Fexofenadine hydrochloride], the Z-score was inactive: 1.23.

With `Fc1ccc(C(OCCCc2c[nH]cn2)c2ccc(F)cc2)cc1`, the Z-score is inactive: -1.1.

On to `CN(C)CCCN1c2ccccc2Sc2ccccc21` [Promazine hydrochloride], for which the Z-score was inactive: -0.828.

In the case of `Cc1cc(C(C)(C)C)c(O)c(C)c1CC1=NCCN1` [Oxymetazoline hydrochloride], the Z-score is inactive: -0.152.

Turning to `Cc1cn(C2C=CC(CO)O2)c(=O)[nH]c1=O` (configuration not stated) [2',3'-didehydro-3'- deoxythymidine], the Z-score is inactive: 0.419.

Consider `CC(CCc1ccccc1)NCC(O)c1ccc(O)c(C(N)=O)c1` (configuration not stated) [Labetalol·HCl], for which the Z-score was inactive: 0.404.

Regarding `CC(CCc1ccccc1)NCC(O)c1ccc(O)c(C(N)=O)c1` (configuration not stated) [Labetalol hydrochloride], the Z-score was inactive: -0.0864.

In the case of `CCOC(=O)[C@H](CCc1ccccc1)N[C@@H](C)C(=O)N1Cc2ccccc2C[C@H]1C(=O)O` [Quinapril·HCl], the Z-score was inactive: -0.0629.

Turning to `Cc1oncc1C(=O)Nc1ccc(C(F)(F)F)cc1` [Leflunomide], the Z-score is inactive: 0.0486.

Take `O=C(O)c1cccnc1Nc1cccc(C(F)(F)F)c1` [Niflumic acid]: the Z-score was inactive: 0.193.

Turning to `CN(C)/N=N/c1[nH]cnc1C(N)=O` [Dacarbazine], the Z-score was inactive: 1.23.

For the molecule `CCCCCC[C@@H]([C@@H](C)O)n1cnc2c(N)ncnc21` [Erythro-9-(2- hydroxy-3- nonyl)adenine HCl], the Z-score is inactive: -0.153.

As for `CC1C(=O)OC2C(O)C34C5CC(C(C)(C)C)C36C(OC(=O)C6O)OC4(C(=O)O5)C12O` (configuration not stated) [Ginkgolide B], the Z-score is inactive: 0.24.

Consider `C[N+](C)(C)CCCCCC[N+](C)(C)C` [Hexamethonium bromide], for which the Z-score was inactive: -0.237.

Take `C[N+](C)(C)CCCCCC[N+](C)(C)C` [Hexamethonium dichloride]: the Z-score is inactive: 0.132.

For the molecule `O=c1cc(-c2ccc(O)cc2)oc2cc(O)c([C@@H]3O[C@H](CO)[C@@H](O)[C@H](O)[C@H]3O)c(O)c12` [Isovitexin], the Z-score was inactive: 0.0047.

With `C[C@@H]1O[C@@H](OC[C@H]2O[C@@H](Oc3cc(O)c4c(c3)O[C@H](c3ccc(O)cc3)CC4=O)[C@H](O)[C@@H](O)[C@@H]2O)[C@H](O)[C@H](O)[C@H]1O` [Narirutin], the Z-score was inactive: 0.151.

For the molecule `COC(=O)Nc1nc2cc(C(=O)c3ccccc3)ccc2[nH]1` [Mebendazole], the Z-score is inactive: -0.0259.

Consider `Nc1nc2c(c(=O)[nH]1)C[C@@H](CCc1ccc(C(=O)N[C@@H](CCC(=O)O)C(=O)O)cc1)CN2` [Lometrexol hydrate], for which the Z-score was inactive: 0.813.

As for `CC(C)c1ccc2oc3nc(N)c(C(=O)O)cc3c(=O)c2c1` [Amlexanox], the Z-score was inactive: -0.0115.

Regarding `CN[C@@H]1[C@H](O[C@H]2[C@H](O[C@H]3[C@H](O)[C@@H](O)[C@H](N=C(N)N)[C@@H](O)[C@@H]3N=C(N)N)O[C@@H](C)[C@]2(O)C=O)O[C@@H](CO)[C@H](O)[C@H]1O` [Streptomycin Sulfate], the Z-score was inactive: 0.206.

As to `Nc1nc(Cl)nc2c1ncn2[C@H]1C[C@H](O)[C@@H](CO)O1` [Cladribine], the Z-score was inactive: 0.554.

For the molecule `CC1(C)CO[C@@H](CC(=O)O)CN1`, the Z-score is inactive: -0.472.

As for `O=C([C@@H](Cc1cccc(C(F)(F)F)c1)NS(=O)(=O)c1cc(F)c2c(c1)CCNC2)N1CCCC1`, the Z-score was inactive: -1.47.

`COc1cccc2c1[C@@H]1CN(CCCCn3c(=O)[nH]c4c(sc5ncc(-c6ccccc6)nc54)c3=O)C[C@@H]1CO2` [Fiduxosin hydrochloride]: the Z-score is inactive: -0.502.

Consider `COc1cccc2c1C(=O)c1c(O)c3c(c(O)c1C2=O)C[C@@](O)(C(=O)CO)C[C@@H]3O[C@H]1C[C@H](N)[C@H](O)[C@H](C)O1` [Doxorubicin], for which the Z-score is inactive: -0.271.

In the case of `COc1cccc2c1C(=O)c1c(O)c3c(c(O)c1C2=O)C[C@@](O)(C(=O)CO)C[C@@H]3O[C@H]1C[C@H](N)[C@H](O)[C@H](C)O1` [Doxorubicin·HCl], the Z-score was inactive: 7.69.

As for `CC1(C)S[C@@H]2[C@H](NC(=O)[C@H](N)c3ccc(O)cc3)C(=O)N2[C@H]1C(=O)O` [Amoxicillin], the Z-score is inactive: 0.0587.

Regarding `Cc1nc(Nc2cnn(C3CCNCC3)c2)nc2c1N(C)C(=O)c1cc3ccccc3cc1N2C`, the Z-score was inactive: 0.754.

`COc1cc(-c2oc3cc(O)ccc3c(=O)c2O)ccc1O` [Geraldol]: the Z-score is inactive: -1.11.

For `OCCOCCN1CCN(C2=Nc3ccccc3Sc3ccccc32)CC1` [Quetiapine Fumarate], the Z-score is inactive: 0.313.

As to `N=C(N)c1ccc(OCCCCCOc2ccc(C(=N)N)cc2)cc1` [Pentamidine Isethionate], the Z-score was inactive: -0.318.

Turning to `N=C(N)c1ccc(OCCCCCOc2ccc(C(=N)N)cc2)cc1` [Pentamidine isethionate], the Z-score is inactive: -0.783.

In the case of `O=c1cc(-c2cccc3c2Sc2ccccc2S3)oc(N2CCOCC2)c1`, the Z-score was inactive: -0.291.

In the case of `Fc1ccc(C(c2ccc(F)cc2)N2CCN(C/C=C/c3ccccc3)CC2)cc1` [Flunarizine dihydrochloride], the Z-score is inactive: -0.511.

Regarding `O=C(Nc1ccccc1)c1cc([N+](=O)[O-])ccc1Cl`, the Z-score is inactive: 0.121.

As to `CCCc1cc(=O)[nH]c(=S)[nH]1` [Propylthiouracil], the Z-score was inactive: -0.0195.

Consider `c1ccc2c(Cc3c[nH]c4ccccc34)c[nH]c2c1` [Diindolylmethane], for which the Z-score was inactive: -0.563.

With `CO/N=C(\C(=O)N[C@@H]1C(=O)N2C(C(=O)OCOC(=O)C(C)(C)C)=C(/C=C\c3scnc3C)CS[C@H]12)c1csc(N)n1` [Cefditoren Pivoxil], the Z-score was inactive: -0.355.

For the molecule `S=C(S)OC1CC2CC1C1CCCC21` [D-609 potassium], the Z-score was inactive: 0.357.

For the molecule `O=[N+]([O-])c1ccc(-c2nc(-c3ccc(F)cc3)c(-c3ccncc3)[nH]2)cc1`, the Z-score is inactive: 1.53.

Regarding `Oc1ncnc2[nH]ncc12` [Allopurinol], the Z-score was inactive: 0.177.

In the case of `C[C@]12CCC(=O)C=C1CC[C@@H]1[C@@H]2[C@@H](O)C[C@@]2(C)[C@H]1CC[C@]2(O)C(=O)CO` [Hydrocortisone], the Z-score was inactive: 0.163.

Turning to `CNCCCC1c2ccccc2C=Cc2ccccc21` [Protriptyline·HCl], the Z-score was inactive: -0.171.

As for `CNCCCC1c2ccccc2C=Cc2ccccc21` [Protriptyline hydrochloride], the Z-score was inactive: -1.54.

For the molecule `CCOC(=O)C1=C[C@@H](OC(CC)CC)[C@H](NC(C)=O)[C@@H](N)C1` [Oseltamivir phosphate], the Z-score is inactive: -0.268.

For `CCOC(=O)C1=C[C@@H](OC(CC)CC)[C@H](NC(C)=O)[C@@H](N)C1` [Oseltamivir Phosphate], the Z-score is inactive: -0.305.

For the molecule `CN(C)CC/C=C1/c2ccccc2Sc2ccc(Cl)cc21` [Chlorprothixene hydrochloride], the Z-score was inactive: 2.23.

As for `CN(C)c1ccc(/C=C/C2=CC(=C/C=C3C=CC(=[N+](C)C)C=C3)/O[B-](F)(F)O2)cc1`, the Z-score was inactive: 0.629.

Take `Cn1cc(CNCC2CCN(c3ncc(C(=O)NO)cn3)CC2)c2ccccc21`: the Z-score is inactive: -0.33.

With `CC(=O)[C@H]1CC[C@H]2[C@@H]3CCC4=CC(=O)CC[C@]4(C)[C@H]3CC[C@]12C` [Progesterone], the Z-score is inactive: -0.392.

On to `Nc1c(C(=O)Nc2c(F)cc(F)cc2Br)sc2nc3c(cc12)CCC3`, for which the Z-score is inactive: 0.231.

Regarding `CCOC(=O)CCNc1cc(N2CCc3ccccc3CC2)nc(-c2ccccn2)n1`, the Z-score was inactive: -1.82.

For the molecule `CN(C)CCOC(c1ccccc1)c1ccccc1` [Diphenhydramine hydrochloride], the Z-score is inactive: 0.894.

With `CN(C)CCOC(c1ccccc1)c1ccccc1` [Diphenhydramine·HCl], the Z-score was inactive: -0.69.

In the case of `CCCN(CCC)S(=O)(=O)c1ccc(C(=O)O)cc1` [Probenecid], the Z-score was inactive: 0.035.

With `O=c1[nH]c(=S)[nH]c(-c2ccccc2)c1Cc1c(O)ccc2ccccc12` [Cambinol], the Z-score was inactive: 1.16.

With `C[C@]12CC[C@@H]3c4ccc(O)cc4CC[C@H]3[C@@H]1CC[C@@H]2O` [Estradiol], the Z-score is inactive: 0.295.

On to `C[C@]12CC[C@@H]3c4ccc(O)cc4CC[C@H]3[C@@H]1CC[C@@H]2O` [beta-Estradiol], for which the Z-score was inactive: -0.164.

Regarding `C[n+]1cc2c3c(ccc2c2ccc4cc5c(cc4c21)OCO5)OCO3` [Sanguinarine], the Z-score was inactive: -0.725.

As to `C[n+]1cc2c3c(ccc2c2ccc4cc5c(cc4c21)OCO5)OCO3` [Sanguinarine chloride], the Z-score was inactive: -1.25.

As to `Nc1ncnc2c1ncn2[C@@H]1O[C@H](CO)[C@@H](O)[C@H]1O` [Adenosine], the Z-score is inactive: 0.252.

For `O=C(c1ccc(Nc2nccc(-c3cc4ccccc4s3)n2)cc1)N1CCC(N2CCCC2)CC1` [IKK-16  dihydrochloride], the Z-score was inactive: 0.0162.

For `Clc1ccc(CSC(Cn2ccnc2)c2ccc(Cl)cc2Cl)cc1` (configuration not stated) [Sulconazole Nitrate], the Z-score was inactive: -0.514.

Regarding `CC(=O)O[C@@]12CO[C@@H]1C[C@H](O)[C@@]1(C)C(=O)[C@H](O)C3=C(C)[C@@H](OC(=O)[C@H](O)[C@@H](NC(=O)OC(C)(C)C)c4ccccc4)C[C@@](O)([C@@H](OC(=O)c4ccccc4)[C@H]21)C3(C)C` [Docetaxel (Taxotere)], the Z-score was inactive: 10.6.

Values taken from the supplement of paper PMC8616043.
